The subject of one test is human platelets. Briefly: platelet aggregation in vitro, human platelets. Particulars: read-out: IC50 (nM) for Test Compounds, agonist Sulprostone (100 nM) and collagen (0.125 ug.mL), Serum % 50.
A further test has as its system female C57BL/6 mice. Briefly: pulmonary thromboembolism induced by arachidonic acid (platelet aggregation in vivo). The following applies: 100 mg/kg orally, 30 min before arachidonic acid 30 mg/kg i.v.; survival one hour after challenge.
The test system of another test is rat platelets. As to the kind of experiment: platelet aggregation in vitro, rat platelets. Particulars: read-out: IC50 (nM) for Test Compounds, agonist Sulprostone (100 nM) and collagen (2.0 ug.mL), Serum % 20.

The match of structure and compound is tentative.

On to `O=C(COc1cccc2[nH]cc(Cc3ccc4ccccc4c3)c12)NS(=O)(=O)c1cc(Cl)c(Cl)s1`, for which the IC50 (in general, the point on the concentration scale where inhibition reaches its midpoint) with human platelets came out at 14.1 nM. In addition, in the test on female C57BL/6 mice, the “No. mice surviving/Total no. of mice evalauted” value is 20/43 and the Survival rate was 46%. Besides, the IC50 with rat platelets is 78.5 nM.

These data come from patent publication US7598397B2, “Sulfonamide peri-substituted bicyclics for occlusive artery disease” (deCODE genetics ehf, priority 2004, dated 2009).
